# Data published in PubChem BioAssay AID330 (DTP/NCI, 2004).
# The list shows only some results of the screen, not a fair sample: it is rich in T/C values a quarter to a half above the control, in often repeated tests (any T/C) and in doses without a T/C. Further doses and runs are listed elsewhere. T/C: endpoint of the treated group in % of that of the vehicle group. Some entries give survivors of the animals treated and no T/C: the source files T/C as zero there, which appears to mark a toxic dose or a test without result, not a measured value. Some survivor counts are full or nearly so, which does not show that the dose was tolerated: survival well below the control is almost never listed, so the zero probably covers shortened survival too. Survivors were counted at the toxicity check, usually on the fifth day, unless a day is given; later deaths do not show. Schedule codes are those of the source, read here as Q, the interval in days (D) or hours (H), X, the number of doses. Some entries hold several experiments; the values are given in rising order. Where survival is the endpoint, this PubChem deposit counts one and a half times the control or more as active, and values a quarter to a half above the control carry no call in these data; other NCI protocols may use other cut-offs. Some T/C values carry the count of animals alive at the toxicity check (mostly the fifth day); where none is given, no animal had died by that day.
# System: P388 leukemia ip, CD2F1 mice, survival T/C
# Assay: NCI In Vivo Anticancer Drug Screen. Data for tumor model P388 Leukemia (intraperitoneal) in CD2F1 (CDF1) mice
# Conditions: T/C endpoint: median survival time, higher T/C = longer survival
# [1] = dose: 100.0 mg/kg/injection, schedule: Q04DX003 (ip), vehicle: saline with Tween-80
# [2] = dose: 200.0 mg/kg/injection, schedule: Q04DX003 (ip), vehicle: saline with Tween-80
# [3] = dose: 400.0 mg/kg/injection, schedule: Q04DX003 (ip), vehicle: saline with Tween-80
# [4] = dose: 100.0 mg/kg/injection, schedule: Q01DX009 (ip), vehicle: Klucel (hydroxypropylcellulose) (HPC)
# [5] = dose: 200.0 mg/kg/injection, schedule: Q01DX009 (ip), vehicle: Klucel (hydroxypropylcellulose) (HPC)
# [6] = dose: 120.0 mg/kg/injection, schedule: Q01DX005 (ip), vehicle: saline with Tween-80
# [7] = dose: 240.0 mg/kg/injection, schedule: Q01DX005 (ip), vehicle: saline with Tween-80
# [8] = dose: 200.0 mg/kg/injection, schedule: Q01DX009 (ip), vehicle: saline
# [9] = dose: 100.0 mg/kg/injection, schedule: Q01DX009 (ip), vehicle: saline with Tween-80
# [10] = dose: 200.0 mg/kg/injection, schedule: Q01DX009 (ip), vehicle: saline with Tween-80
# [11] = dose: 100.0 mg/kg/injection, schedule: Q01DX005 (ip), vehicle: Klucel (hydroxypropylcellulose) (HPC)
# [12] = dose: 200.0 mg/kg/injection, schedule: Q01DX005 (ip), vehicle: Klucel (hydroxypropylcellulose) (HPC)
# [13] = dose: 25.0 mg/kg/injection, schedule: Q01DX009 (ip), vehicle: Klucel (hydroxypropylcellulose) (HPC)
# [14] = dose: 200.0 mg/kg/injection, schedule: Q01DX005 (ip), vehicle: saline with Tween-80
# [15] = dose: 6.25 mg/kg/injection, schedule: Q01DX009 (ip), vehicle: Klucel (hydroxypropylcellulose) (HPC)
# [16] = dose: 12.5 mg/kg/injection, schedule: Q01DX009 (ip), vehicle: Klucel (hydroxypropylcellulose) (HPC)
compound,measurement,setting,value
C/C(=N\N=C(\[Se])N(C)C)c1ccccn1,survivor count,[1],4 of 6
same,survivor count,[2],1 of 6
same,survivor count,[3],0 of 6
CS(=O)(=O)c1nc2ccc(N3C(=O)c4ccccc4C3=O)cc2s1,survivor count,[4],6 of 6
Cc1nnc(C)s1,T/C,[5],136 % of control
same,T/C,"dose: 600.0 mg/kg/injection, schedule: Q01DX009 (ip), vehicle: Klucel (hydroxypropylcellulose) (HPC)",126 % of control
CCn1cnc(-c2ccccc2)c1-c1ccccc1,survivor count,[1],1 of 6
CCOc1c(Br)cc(/C=C/[N+](=O)[O-])cc1OC,survivor count,"dose: 30.0 mg/kg/injection, schedule: Q01DX005 (ip), vehicle: saline with Tween-80",3 of 6
same,survivor count,"dose: 60.0 mg/kg/injection, schedule: Q01DX005 (ip), vehicle: saline with Tween-80",0 of 6
same,survivor count,[6],0 of 6
same,survivor count,[7],0 of 6
O=Cc1cccc(O)c1O,survivor count,[8],4 of 6
same,survivor count,"dose: 400.0 mg/kg/injection, schedule: Q01DX009 (ip), vehicle: saline",0 of 6
same,survivor count,"dose: 600.0 mg/kg/injection, schedule: Q01DX009 (ip), vehicle: saline",0 of 6
CCn1c2ccccc2c2c3c(NCCCN(C)C)cc(C)nc3ccc21,survivor count,"dose: 45.0 mg/kg/injection, schedule: Q01DX009 (ip), vehicle: saline with Tween-80",5 of 6
same,survivor count,"dose: 90.0 mg/kg/injection, schedule: Q01DX009 (ip), vehicle: saline with Tween-80",2 of 6
same,survivor count,"dose: 180.0 mg/kg/injection, schedule: Q01DX009 (ip), vehicle: saline with Tween-80",0 of 6
CC(=O)Nc1ccc(Sc2ncc([N+](=O)[O-])s2)cc1,survivor count,[5],0 of 6
CC(C)N1C(=O)C=C(c2ccc([N+](=O)[O-])cc2)C1=O,survivor count,[9],4 of 6
same,survivor count,[10],1 of 6
CCCCCCCCCCCCCCCCCSc1c(O)c(O)c2cccnc2c1O (tested in a mixture with another compound),survivor count,"dose: 240.0 mg/kg/injection, schedule: Q01DX005 (ip), vehicle: Klucel (hydroxypropylcellulose) (HPC)",0 of 6
Nc1cc2c(c[n+](CCCCCCCCCC[n+]3cc4c5ccccc5c(N)cc4c4ccccc43)c3ccccc23)c2ccccc12,T/C,"dose: 1.56 mg/kg/injection, schedule: Q04DX003 (ip), vehicle: other",127 % of control
same,T/C,"dose: 3.13 mg/kg/injection, schedule: Q04DX003 (ip), vehicle: other",127 and 137 % of control
same,T/C,"dose: 6.25 mg/kg/injection, schedule: Q04DX003 (ip), vehicle: other",137 and 148 % of control
same,T/C,"dose: 12.5 mg/kg/injection, schedule: Q04DX003 (ip), vehicle: other",145 and 147 % of control
same,T/C,"dose: 100.0 mg/kg/injection, schedule: Q04DX003 (ip), vehicle: other",148 % of control
Cc1cccc(Nc2c(N)nc(N)nc2N)c1,survivor count,[9],2 of 6
same,survivor count,[2],0 of 6
same,survivor count,[3],0 of 6
N=c1oc(-c2ccccc2)cc2ccccc12,survivor count,"dose: 50.0 mg/kg/injection, schedule: Q01DX005 (ip), vehicle: Klucel (hydroxypropylcellulose) (HPC)",3 of 5
same,survivor count,[11],2 of 5
same,survivor count,[12],0 of 5
COc1cccc([N+]([O-])=NC#N)c1,survivor count,"dose: 100.0 mg/kg/injection, schedule: Q04DX003 (ip), vehicle: Klucel (hydroxypropylcellulose) (HPC)",0 of 6
same,survivor count,"dose: 200.0 mg/kg/injection, schedule: Q04DX003 (ip), vehicle: Klucel (hydroxypropylcellulose) (HPC)",0 of 6
Cn1c2ccccc2c(=O)c2c([N+](=O)[O-])ccc(NCCN)c21,survivor count,"dose: 240.0 mg/kg/injection, schedule: Q01DX005 (ip), vehicle: saline",0 of 6
CCCCCCC(/C=C/c1ccc(Cl)c(Cl)c1)=N\Nc1ccc(Cl)c(Cl)c1,survivor count,[9],6 of 6
O=S1(=O)C(c2cccc(C(F)(F)F)c2)=C(O)c2cc3ccccc3nc21,survivor count,"dose: 50.0 mg/kg/injection, schedule: Q01DX009 (ip), vehicle: saline + Tween-80 + alcohol",6 of 6
Cn1cnc([N+](=O)[O-])c1S(=O)(=O)NCN1CCOCC1,T/C,[13],125 % of control [5 of 6 alive]
same,T/C,"dose: 50.0 mg/kg/injection, schedule: Q01DX009 (ip), vehicle: Klucel (hydroxypropylcellulose) (HPC)",135 % of control
COc1ccc(C(=O)SCCCN=C(N)N)cc1,survivor count,[14],0 of 5
NC(=S)Nc1cccc(C(F)(F)F)c1,survivor count,"dose: 400.0 mg/kg/injection, schedule: Q01DX009 (ip), vehicle: other",0 of 6
O=c1[nH]c(=O)c2cccnc2[nH]1,T/C,[15],127 % of control
same,T/C,[16],127 % of control
same,T/C,[13],125 % of control
same,survivor count,[5],6 of 6
COc1c(I)c2c(c(OC)c1OC)-c1ccc(OC)c(=O)cc1C(NC(C)=O)CC2 (configuration not stated),T/C,"dose: 1.56 mg/kg/injection, schedule: Q01DX009 (ip), vehicle: Klucel (hydroxypropylcellulose) (HPC)",135 and 137 % of control
same,T/C,"dose: 3.12 mg/kg/injection, schedule: Q01DX009 (ip), vehicle: Klucel (hydroxypropylcellulose) (HPC)",142 and 147 % of control
same,T/C,[15],148 % of control
same,survivor count,[16],5 of 5
same,survivor count,[13],1 of 5 and 5 of 5
N#Cc1ccc(OC(=O)Nc2ccccc2C(F)(F)F)cc1,survivor count,[7],6 of 6
[Cl][Ge]([Cl])([Cl])[c]1ccccc1,survivor count,[8],0 of 6
CCN(CC)CCSCCCN=c1c2ccc(Cl)cc2n(O)c2ccc(OC)nc12,survivor count,"dose: 200.0 mg/kg/injection, schedule: Q01DX009 (ip), vehicle: saline + alcohol",0 of 6
c1ccc2c(NCCCCCCCCCCCCCCCCNc3c4ccccc4nc4ccccc34)c3ccccc3nc2c1,survivor count,"dose: 20.0 mg/kg/injection, schedule: Q01DX009 (ip), vehicle: other",3 of 6
CCCCCCCCC[N+](C)([O-])CCCCCC[N+](C)([O-])CCCCCCCCC (configuration not stated),survivor count,"dose: 100.0 mg/kg/injection, schedule: Q04DX003 (ip), vehicle: saline",1 of 6
same,survivor count,"dose: 200.0 mg/kg/injection, schedule: Q04DX003 (ip), vehicle: saline",0 of 6
same,survivor count,"dose: 400.0 mg/kg/injection, schedule: Q04DX003 (ip), vehicle: saline",0 of 5
COc1cccc(CN2CCN(N=O)CC2)c1,survivor count,"dose: 400.0 mg/kg/injection, schedule: Q01DX009 (ip), vehicle: Klucel (hydroxypropylcellulose) (HPC)",2 of 6
CCOC(=O)C(C(=O)OCC)[N+](=O)[O-],survivor count,[10],3 of 6
same,survivor count,"dose: 400.0 mg/kg/injection, schedule: Q01DX009 (ip), vehicle: saline with Tween-80",1 of 6
NC(=O)C1=C2NC(=O)c3ccccc3C2C2=C1CCCC2 (configuration not stated),survivor count,[11],3 of 5
same,survivor count,[12],0 of 5
COc1cc(C2C(C#N)=CNc3nc(N)nc(N)c32)cc(OC)c1OC (configuration not stated),T/C,[6],126 % of control [5 of 6 alive]
same,T/C,[7],137 % of control
CC12CC3CC(C1)CC(Br)(C3)C2,T/C,[4],128 % of control
same,T/C,[5],128 % of control
CCC#CCN(CCCC)CCCC,survivor count,[14],0 of 5
